Taken from: PubChem BioAssay AID686937 (Drosophila RNAi Screening Center, 2013)

- Screen: 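Knock-downs that reduce output of a secreted reporter enzyme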 (primary screen)
- Cells: Drosophila S2 cells expressing secreted horseradish peroxidase
- Reagents: long dsRNA against Drosophila genes
- Time to read-out: about 5.5 days (5 days dsRNA, then 12 h reporter induction)
- Challenge: reporter expression induced after 5 days of dsRNA, read 12 h later; inducer not stated
- Measured: 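Chemiluminescent measurement of peroxidase in the medium 12 h after reporter induction, following 5 days of dsRNA, given as a z-score per plate; higher means more secretion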
- Scale: z-score: higher = more reporter secreted into medium
The screen tested about 23,000 reagents; this is a random part of those with a known target gene and a result. 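Reduced-secretion tags in replicate 1 do not always agree with the z-scores; no criterion for assigning the tags was given.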 Further read-outs or replicates are left out here. The record does not give: the amount of reagent.

With knock-down of tilB (touch insensitive larva B) [DRSC20634] the results were z-score, replicate 1 = 0.13. Dnaaf5 (Dynein axonemal assembly factor 5) [DRSC13032] gave z-score, replicate 1 = -0.64. With knock-down of Cpr76Ba (Cuticular protein 76Ba) [DRSC11060], the record shows z-score, replicate 1 = 0.08. Knock-down of Cdc16 (Cell division cycle 16) [DRSC16920] came out at: z-score, replicate 1 = -0.37. With knock-down of Rgk3 (Rad, Gem/Kir family member 3) [DRSC04250], the record shows z-score, replicate 1 = 0.5. With knock-down of Rgk3 (Rad, Gem/Kir family member 3) [DRSC04251], the screen gave z-score, replicate 1 = 0.26.

Rgk3 (Rad, Gem/Kir family member 3) [DRSC04254] gave z-score, replicate 1 = -0.51. With knock-down of Rgk3 (Rad, Gem/Kir family member 3) [DRSC04255], the record shows z-score, replicate 1 = 0. CG13403 [DRSC19535] scored z-score, replicate 1 = 0.22. After knock-down of dmrt11E (doublesex-Mab related 11E) [DRSC19715], the screen gave z-score, replicate 1 = 0.14. Knock-down of CG3999 [DRSC15534] resulted in: z-score, replicate 1 = 0.2. Against CG12084 [DRSC08247], the values are z-score, replicate 1 = 0.45.

CG17249 [DRSC08517] gave z-score, replicate 1 = 0.11. For CG3829 [DRSC04423], the entry reads z-score, replicate 1 = 0.23. Knock-down of ksr (kinase suppressor of ras) [DRSC12379] resulted in: z-score, replicate 1 = -0.48. Knock-down of BRWD3 [DRSC15369] gave: z-score, replicate 1 = -1.15. BRWD3 [DRSC16032] showed z-score, replicate 1 = -0.39. After knock-down of CG2887 [DRSC18235], the screen gave z-score, replicate 1 = 0.25.

With knock-down of CG33229 [DRSC07863], the screen gave z-score, replicate 1 = -0.04.

Copied from the listing, 7 entries:
Rgk3 (Rad, Gem/Kir family member 3) [DRSC04254] → z-score, replicate 1 = -0.51
Rgk3 (Rad, Gem/Kir family member 3) [DRSC04255] → z-score, replicate 1 = 0
CG13403 [DRSC19535] → z-score, replicate 1 = 0.22
dmrt11E (doublesex-Mab related 11E) [DRSC19715] → z-score, replicate 1 = 0.14
CG3999 [DRSC15534] → z-score, replicate 1 = 0.2
CG12084 [DRSC08247] → z-score, replicate 1 = 0.45
CG17249 [DRSC08517] → z-score, replicate 1 = 0.11

The list goes on:
Vps39 (Vacuolar protein sorting 39) [DRSC16205] gave z-score, replicate 1 = 0.15. For Rbp1-like [DRSC19828], the entry reads z-score, replicate 1 = 0.36. Against Rbp1-like [DRSC21938] the deposit lists z-score, replicate 1 = 0.72. Rbp1-like [DRSC22075] gave z-score, replicate 1 = -0.25. dpr10 (defective proboscis extension response 10) [DRSC09015] showed z-score, replicate 1 = 0.19. With knock-down of dpr10 (defective proboscis extension response 10) [DRSC09018], the record shows z-score, replicate 1 = 0.34.

Silencing of dpr10 (defective proboscis extension response 10) [DRSC10159] came out at: z-score, replicate 1 = 0.28. Against dpr10 (defective proboscis extension response 10) [DRSC10160], the entry reads z-score, replicate 1 = 0.45. Sys1 (Sys1 golgi trafficking protein) [DRSC14372] showed z-score, replicate 1 = -0.01. shf (shifted) [DRSC18283] scored z-score, replicate 1 = 0.24. Silencing of CG7857 [DRSC10925] gave: z-score, replicate 1 = 0.1. Depletion of Rca1 (Regulator of cyclin A1) [DRSC03407] resulted in: z-score, replicate 1 = -0.75.

After knock-down of Hml (Hemolectin) [DRSC11183], the screen gave z-score, replicate 1 = 0.52. cysu (Curly Su) [DRSC15902] showed z-score, replicate 1 = 0.37. Against CG14556 [DRSC14899] the deposit lists z-score, replicate 1 = 0.45. With knock-down of CG18301 [DRSC02662], the record shows z-score, replicate 1 = -0.02. With knock-down of HLH3B (Helix loop helix protein 3B) [DRSC18669], the record shows z-score, replicate 1 = 0.2. Against Eaf6 (Esa1-associated factor 6) [DRSC09901], the values are z-score, replicate 1 = 0.32.

Silencing of CG7886 [DRSC16333] gave: z-score, replicate 1 = 0.18. With knock-down of CG32182 [DRSC09508], the screen gave z-score, replicate 1 = 0.2. CG2909 [DRSC18241] showed z-score, replicate 1 = 0.38. CG2519 [DRSC12312] gave z-score, replicate 1 = 0.28. Knock-down of Kat60 (Katanin 60) [DRSC12378] gave: z-score, replicate 1 = 0.35. After knock-down of CG34325 [DRSC19802] the results were z-score, replicate 1 = 0.27.

Knock-down of CG34325 [DRSC20200] came out at: z-score, replicate 1 = 0.18. After knock-down of lectin-24Db [DRSC00553] the results were z-score, replicate 1 = 0.21. For CG33640 [DRSC01324], the entry reads z-score, replicate 1 = 0.49. Knock-down of CG32199 [DRSC09990] resulted in: z-score, replicate 1 = 0.02. Knock-down of mas (masquerade) [DRSC08720] came out at: z-score, replicate 1 = 0.42. Knock-down of CG6726 [DRSC16101] came out at: z-score, replicate 1 = 0.29.

With knock-down of CG34428 [DRSC10119], the screen gave z-score, replicate 1 = 0.24. Depletion of Tis11 (Tis11 zinc finger protein) [DRSC20293] resulted in: z-score, replicate 1 = -0.81.
